Among the data in PMC4931016 are binding values, retold here.

The chains behind the UniProt entries cited, without tags or fusion partners. Residues count along the entry.
UniProt P16056, residues 25-1379: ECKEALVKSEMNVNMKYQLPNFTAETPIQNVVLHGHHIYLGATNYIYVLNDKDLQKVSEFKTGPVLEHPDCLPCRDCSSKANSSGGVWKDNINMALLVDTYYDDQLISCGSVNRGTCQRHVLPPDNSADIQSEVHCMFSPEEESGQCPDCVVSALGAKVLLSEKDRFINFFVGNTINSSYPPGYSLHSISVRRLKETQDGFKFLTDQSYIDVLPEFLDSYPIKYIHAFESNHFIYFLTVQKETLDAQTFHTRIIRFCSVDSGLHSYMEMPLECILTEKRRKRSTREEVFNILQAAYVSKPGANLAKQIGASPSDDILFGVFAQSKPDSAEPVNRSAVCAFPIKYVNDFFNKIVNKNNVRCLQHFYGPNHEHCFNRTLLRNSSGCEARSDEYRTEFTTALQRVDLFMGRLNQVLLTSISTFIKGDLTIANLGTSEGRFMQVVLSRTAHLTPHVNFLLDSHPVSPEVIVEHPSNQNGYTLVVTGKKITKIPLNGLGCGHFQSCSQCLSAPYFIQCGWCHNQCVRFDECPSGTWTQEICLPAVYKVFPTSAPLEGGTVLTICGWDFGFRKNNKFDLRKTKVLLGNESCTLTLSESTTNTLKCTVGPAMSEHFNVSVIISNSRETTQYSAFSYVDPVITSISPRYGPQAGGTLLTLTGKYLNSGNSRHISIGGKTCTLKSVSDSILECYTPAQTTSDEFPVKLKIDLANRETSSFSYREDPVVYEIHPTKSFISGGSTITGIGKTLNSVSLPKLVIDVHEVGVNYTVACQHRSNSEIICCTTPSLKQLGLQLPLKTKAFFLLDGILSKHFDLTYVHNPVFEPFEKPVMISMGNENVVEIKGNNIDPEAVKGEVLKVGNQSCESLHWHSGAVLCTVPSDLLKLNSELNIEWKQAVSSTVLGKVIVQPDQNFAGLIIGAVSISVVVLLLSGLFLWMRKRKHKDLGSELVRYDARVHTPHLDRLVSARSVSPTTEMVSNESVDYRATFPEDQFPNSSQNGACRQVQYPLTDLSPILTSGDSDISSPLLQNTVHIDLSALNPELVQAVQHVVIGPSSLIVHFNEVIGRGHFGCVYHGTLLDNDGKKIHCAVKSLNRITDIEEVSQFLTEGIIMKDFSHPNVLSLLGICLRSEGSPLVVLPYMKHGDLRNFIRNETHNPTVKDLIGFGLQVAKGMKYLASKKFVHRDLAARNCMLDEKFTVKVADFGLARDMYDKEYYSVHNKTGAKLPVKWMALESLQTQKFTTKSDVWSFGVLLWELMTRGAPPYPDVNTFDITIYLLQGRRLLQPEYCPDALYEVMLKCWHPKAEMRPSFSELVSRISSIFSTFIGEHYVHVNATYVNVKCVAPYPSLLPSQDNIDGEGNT
UniProt P08581, residues 25-1390: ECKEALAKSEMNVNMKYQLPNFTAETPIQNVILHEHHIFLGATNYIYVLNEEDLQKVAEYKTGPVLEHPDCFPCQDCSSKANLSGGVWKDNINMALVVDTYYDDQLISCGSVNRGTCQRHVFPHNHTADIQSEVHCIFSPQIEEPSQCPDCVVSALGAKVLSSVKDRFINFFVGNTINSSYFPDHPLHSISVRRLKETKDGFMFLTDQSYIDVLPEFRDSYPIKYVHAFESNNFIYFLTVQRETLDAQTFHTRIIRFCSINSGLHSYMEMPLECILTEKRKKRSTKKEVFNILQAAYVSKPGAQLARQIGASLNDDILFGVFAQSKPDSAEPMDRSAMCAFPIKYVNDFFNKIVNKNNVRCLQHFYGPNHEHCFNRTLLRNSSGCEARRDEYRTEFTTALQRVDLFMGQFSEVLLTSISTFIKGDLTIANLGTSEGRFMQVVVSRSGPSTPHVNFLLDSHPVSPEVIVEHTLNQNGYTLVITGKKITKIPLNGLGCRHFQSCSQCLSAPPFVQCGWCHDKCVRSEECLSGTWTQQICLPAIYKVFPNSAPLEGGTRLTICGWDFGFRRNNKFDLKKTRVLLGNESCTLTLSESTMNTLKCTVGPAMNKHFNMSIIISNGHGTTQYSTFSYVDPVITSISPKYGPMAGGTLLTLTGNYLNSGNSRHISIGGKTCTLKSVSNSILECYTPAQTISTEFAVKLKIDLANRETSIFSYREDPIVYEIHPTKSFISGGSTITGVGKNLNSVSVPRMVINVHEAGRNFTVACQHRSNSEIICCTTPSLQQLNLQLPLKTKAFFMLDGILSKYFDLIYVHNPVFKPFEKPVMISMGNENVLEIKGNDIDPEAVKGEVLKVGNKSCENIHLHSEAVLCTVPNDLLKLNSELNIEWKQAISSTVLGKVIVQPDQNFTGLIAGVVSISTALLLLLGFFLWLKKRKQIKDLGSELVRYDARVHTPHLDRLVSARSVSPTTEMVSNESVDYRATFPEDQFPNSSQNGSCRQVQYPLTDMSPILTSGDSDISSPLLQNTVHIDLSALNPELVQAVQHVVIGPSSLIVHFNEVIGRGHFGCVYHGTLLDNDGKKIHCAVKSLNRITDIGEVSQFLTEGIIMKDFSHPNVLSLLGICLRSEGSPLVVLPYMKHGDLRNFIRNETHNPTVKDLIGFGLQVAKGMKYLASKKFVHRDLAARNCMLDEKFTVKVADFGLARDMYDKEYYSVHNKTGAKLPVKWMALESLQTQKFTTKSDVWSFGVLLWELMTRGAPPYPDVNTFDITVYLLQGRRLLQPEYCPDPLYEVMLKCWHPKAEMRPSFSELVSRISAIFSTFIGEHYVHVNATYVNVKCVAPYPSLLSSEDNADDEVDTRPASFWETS

For assay [1], the target named is c-Met (hepatocyte growth factor receptor), endogenous in β1A and β1A-YYFF cells (mouse (endogenous in β1A cells)) (UniProt P16056). The assay is described as follows: co-IP; β1A (and β1A-YYFF) cells, HGF for 0 or 120 min; lysis in 0.5% Triton X-100, 20 mM Tris pH 7.5, 150 mM NaCl; immunoprecipitation with c-Met B2 antibody on protein A/G agarose beads, 4 °C; IgG and beads-only controls; western blot. In general terms: A western blot detects proteins with antibodies after separation by electrophoresis.

For assay [2], the target named is c-Met (hepatocyte growth factor receptor), endogenous in A549 cells (human (endogenous in A549)) (UniProt P08581). The assay is described as follows: co-IP; A549 cells kept in suspension, without or with HGF for 120 min; control, β1-integrin or ATG5 siRNA; lysis in 0.5% Triton X-100, 20 mM Tris pH 7.5, 150 mM NaCl; immunoprecipitation with c-Met (CVD13) or β1-integrin antibody, IgG or no-antibody controls; western blot.

In assay [3] the target is β1-integrin, endogenous in A549 cells (human (endogenous in A549)), P05556. The description is as above. As to conditions: remark: other sources report otherwise.

No constants are given. Whether binding was seen depends on the method and setting. Binding seen in cells or lysates may run through a third protein. Some entries that bind do so weakly or less than the wild type.

B1: p52Shc, endogenous in β1A and β1A-YYFF cells (protein, UniProt P98083-2 1-469)
chain: MNKLSGGGGRRTRVEGGQLGGEEWTRHGSFVNKPTRGWLHPNDKVMGPGVSYLVRYMGCVEVLQSMRALDFNTRTQVTREAISLVCEAVPGAKGATRRRKPCSRPLSSILGRSNLKFAGMPITLTVSTSSLNLMAADCKQIIANHHMQSISFASGGDPDTAEYVAYVAKDPVNQRACHILECPEGLAQDVISTIGQAFELRFKQYLRNPPKLVTPHDRMAGFDGSAWDEEEEEPPDHQYYNDFPGKEPPLGGVVDMRLREGAARPTLPSAQMSSHLGATLPIGQHAAGDHEVRKQMLPPPPCPGRELFDDPSYVNIQNLDKARQAGGGAGPPNPSLNGSAPRDLFDMKPFEDALRVPPPPQSMSMAEQLQGEPWFHGKLSRREAEALLQLNGDFLVRESTTTPGQYVLTGLQSGQPKHLLLVDPEGVVRTKDHRFESVSHLISYHMDNHLPIISAGSELCLQQPVDRKV
For B1, the binding entry in assay [1] was “binds”.

B2: p52Shc, endogenous in A549 cells (protein, UniProt P29353-2 1-473)
chain: MNKLSGGGGRRTRVEGGQLGGEEWTRHGSFVNKPTRGWLHPNDKVMGPGVSYLVRYMGCVEVLQSMRALDFNTRTQVTREAISLVCEAVPGAKGATRRRKPCSRPLSSILGRSNLKFAGMPITLTVSTSSLNLMAADCKQIIANHHMQSISFASGGDPDTAEYVAYVAKDPVNQRACHILECPEGLAQDVISTIGQAFELRFKQYLRNPPKLVTPHDRMAGFDGSAWDEEEEEPPDHQYYNDFPGKEPPLGGVVDMRLREGAAPGAARPTAPNAQTPSHLGATLPVGQPVGGDPEVRKQMPPPPPCPGRELFDDPSYVNVQNLDKARQAVGGAGPPNPAINGSAPRDLFDMKPFEDALRVPPPPQSVSMAEQLRGEPWFHGKLSRREAEALLQLNGDFLVRESTTTPGQYVLTGLQSGQPKHLLLVDPEGVVRTKDHRFESVSHLISYHMDNHLPIISAGSELCLQQPVERKL
For the molecule B2, in assay [2], the binding entry was “binds”.

B3: p52Shc, endogenous in A549 cells, P29353-2 1-473 (protein)
chain: MNKLSGGGGRRTRVEGGQLGGEEWTRHGSFVNKPTRGWLHPNDKVMGPGVSYLVRYMGCVEVLQSMRALDFNTRTQVTREAISLVCEAVPGAKGATRRRKPCSRPLSSILGRSNLKFAGMPITLTVSTSSLNLMAADCKQIIANHHMQSISFASGGDPDTAEYVAYVAKDPVNQRACHILECPEGLAQDVISTIGQAFELRFKQYLRNPPKLVTPHDRMAGFDGSAWDEEEEEPPDHQYYNDFPGKEPPLGGVVDMRLREGAAPGAARPTAPNAQTPSHLGATLPVGQPVGGDPEVRKQMPPPPPCPGRELFDDPSYVNVQNLDKARQAVGGAGPPNPAINGSAPRDLFDMKPFEDALRVPPPPQSVSMAEQLRGEPWFHGKLSRREAEALLQLNGDFLVRESTTTPGQYVLTGLQSGQPKHLLLVDPEGVVRTKDHRFESVSHLISYHMDNHLPIISAGSELCLQQPVERKL
For B3, the binding result in assay [3] was “binds”.
